Reference: PMC3513293
These are yes or no findings as the source states them, for the method shown. Some entries that bind do so weakly or less than the wild type.

Molecular target: p97/Valosin-containing protein (VCP), full length (UniProt P55072)
Assay: SPR; Biacore 3000; p97/VCP immobilised on CM5 (1000 RU in Figure 6); UN or p47 injected with 1 mM ATP (magnesium complex) during association and dissociation; 25°C, PBS; Interaction Map Analysis for UN; AMP-PNP strengthened UN binding much as ATP; both purified

binding: binds
B1: p47 (protein, UniProt O35987 1-370)
chain: MAEERQDALREFVAVTGAEEDRARFFLESAGWDLQIALASFYEDGGDEDIVTISQATPSSVSRGTAPSDNRVTSFRDLIHDQDEEEEEEEGQRFYAGGSERSGQQIVGPPRKKSPNELVDDLFKGAKEHGAVAVERVTKSPGETSKPRPFAGGGYRLGAAPEEESAYVAGERRRHSGQDVHVVLKLWKTGFSLDNGDLRSYQDPSNAQFLESIRRGEVPAELRRLAHGGQVNLDMEDHRDEDFVKPKGAFKAFTGEGQKLGSTAPQVLNTSSPAQQAENEAKASSSILINEAEPTTNIQIRLADGGRLVQKFNHSHRISDIRLFIVDARPAMAATSFVLMTTFPNKELADENQTLKEANLLNAVIVQRLT
